About 3,700 (7%) of roughly 53,000 sequences were called active.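 Rule for the calls: active = gene knockdowns whose robust z-score for IL-1 alpha signal is at least 2 or at most -2, so actives lie on both sides; inactive = the rest.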 This is one part of the list.

A short description of this assay: Components of the Cytosolic LPS Sensing Pathway: Gene Identification via Genome-wide siRNA Screen.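 Note: robust z of the log signal after scaling to non-targeting control siRNA wells of the plate.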 The conditions noted are these: RAW264.7 macrophages, IL-1a HTRF, actives lie on both sides, screened at 100 nM (by protocol), cells primed 5 h with Pam3CSK4 first. The procedure, abridged: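 Knockdown: 100 nM siRNA, 48h, RAW264.7. Stimulation: Pam3CSK4 5 h, then LipidA via TransIT-TKO 24 h. Output: supernatant IL-1a HTRF, negative-control-normalized, log robust z-score; viability by CellTiter-Glo.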
For the sequence GGUGGAUUUCUACUAUGAUTT against Abcf3, the z-score was inactive: -0.124.
With CCUGAAAUGCUAAGACUACTT against Gm5142 the figure was inactive: 1.15.
For the sequence GGAUGCAGAGACCUAUUUCTT against Cacng5, the z-score was inactive: -0.158.
On to GGCUUUAAGAACUGGGCCCTT against Clec10a, for which the z-score is inactive: 0.258.
To GCAUUGGCUGUACUACUAUTT against Psg18 belongs inactive: 0.287; to GAGCAUCUGUGUAGAAGUGTT against Thrsp, inactive: 0.786.
Turning to GGCAAAUUAGAGGAAAAGUTT against Zfp354a, the z-score was inactive: 0.118.
On to GGCCACCGUUCAAAAAAUUTT against Dctn5, for which the z-score was inactive: -0.226.
Consider GGACCAUGCACGAUACUCUTT against Foxn1, for which the z-score was inactive: 0.465.
As for GGCAAAUCAAGCAGAAAAUTT against Ncor1, the z-score is inactive: 0.739.
On to GGAAAAAGAGUCCUUCAUGTT against Minar2, for which the z-score was inactive: 1.19.
Regarding GGCAUCACUUUCUUUCCUUTT against Abhd10, the z-score was inactive: -1.2.
With GGUAAUUGAAAGAGGAGAGTT against Vamp4 the figure was inactive: 0.38.
As to GGUGCCUGACCAAAAAGGATT against Samd12, the z-score is inactive: 1.43.
As for CCCGUUGUAUACAAAUACCTT against Tmem41b, the z-score was inactive: 0.579.
With GGAACUGAAAAAGAAAACATT against Ist1 the figure was inactive: -1.04; with GGGAUGUGUGAAUAAAAAATT against Elovl7, inactive: -0.292; with CGCAUUCUACUCCUAUGAGTT against Pdcd2, inactive: 1.16.
Regarding GCCCUACCAAUACUACAGUTT against Lamc3, the z-score is inactive: -0.0165.
Turning to GGAAACUUUUGGAAGACUATT against Jmjd6, the z-score was active: 2.02.
As to GGCCGGUUAGCUAAUCAGATT against Armc10, the z-score was active: 2.03.
For GGAAAAAUGCUACAUACAATT against Slc15a2, the z-score is inactive: 0.864.
In the case of CGACCCAAUCGAUGUUUGUTT against Ppa1, the z-score is inactive: -0.281.
To CCACCCUCUUCAUAACAGUTT against Med27 belongs inactive: -0.82; to GGAGAACAAGAUCCUGGAGTT against Ccdc39, inactive: 1.73; to GCGGUCAACUGGAAACUAATT against Dnaja3, inactive: 0.735.
With GCUGACUUUUUGACAUUGUTT against Rab39, the z-score was inactive: 0.246.
For the sequence GGCAGAAAUGCUGGAGAUUTT against Ncald, the z-score was inactive: 1.19.
As to GGUGAGGAUUGAUAAUGAGTT against Rit2, the z-score was inactive: -1.46.
GGUGUUCCCGGUUGAAUAATT against Selenow: the z-score is inactive: -0.0777.
As for GCUCUUCAUUGAAUCUCGGTT against Per1, the z-score was inactive: 0.136.
For the sequence GCAUGUUUAGAACUAGCUCTT against Zfp87, the z-score is inactive: 0.76.
Take GGGACAAUUAGAAAGACAUTT against Mtif2: the z-score was inactive: 0.982.
Consider GGCUAUGAGAAUCACAUAATT against Tpo, for which the z-score is inactive: -1.49.
With CCAUUCGAGAUGAGAAGAATT against Gcc1, the z-score is inactive: -0.287.
With CCAUCAAUCCUAAUGCUUATT against Ccin the figure was inactive: -0.376; with GCUCUAUAUCCAGGAAACUTT against Krtap6-2, inactive: 0.0521; with CCAGUGAAAAAAAUGCCAUTT against Olfr344, inactive: -0.393.
Turning to CGGUUUACGCCACAAAAGUTT against Rprm, the z-score is inactive: -0.724.
Take GGCAAACAAAUGGUUUGUUTT against Zfp324: the z-score was inactive: -0.544.
Regarding GGCAUAUGCUGGAGUUAUCTT against Emsy, the z-score is inactive: -0.309.
With GGAGACUUAAGAUGUUACATT against Tafa5 the figure was inactive: -0.0542; with GCAAUGGAACUAUUAUUCATT against Cd28, active: 2.48; with GGAAAAACAUCUCUUGCUUTT against Calcb, inactive: 0.361.
Turning to GCUUAUAGAGGAGAACCGUTT against Thrb, the z-score is inactive: -0.159.
On to GGACCAGCUCAGUCAAACATT against Slc39a4, for which the z-score was inactive: -0.128.
GGCGACAAGCAUUAUCAUCTT against Ablim1: the z-score is inactive: 1.72.
Regarding GGCUUCUGAUACAUAUAUCTT against G6pc2, the z-score was inactive: 0.195.
Regarding GGUGAAUGCACCUUGACCCTT against Spag16, the z-score is inactive: -0.506.
As to CACGAUGUGGAGCAUGUGCTT against Pfdn5, the z-score is inactive: -0.271.
As for UGGAGGAUUACUCUUCUGCTT against Sp140, the z-score was inactive: -1.61.
Regarding GCAUCAUAAUGGGAUGCUGTT against Qrfp, the z-score is inactive: -0.313.
For CCAUUGCCAACAACUAGAUTT against Cela3b, the z-score was inactive: 1.07.
To GGGAAGUCUGGACAAUAUGTT against Ppm1n belongs inactive: -1.06; to GGGUAAGAACUUAUUAUUCTT against Ecd, inactive: 0.609.
GGUUUGCCUGUGCUGAUAUTT against Olfr549: the z-score is inactive: -0.617.
To GGGUUUUACUAUGUAGCUCTT against Olfr94 belongs inactive: -0.34; to GCUUGCUGACAUGAUUCCUTT against Ndrg2, inactive: 0.321.
In the case of GCGAAUCUUUCAUAACAGUTT against Lrrc59, the z-score was inactive: 0.581.
On to CGGCCUCAGUUUAGAAUUATT against Plat, for which the z-score is inactive: 0.485.
CGUCAUGCAUUUUUCUAAATT against Trim24: the z-score is inactive: 0.489.
Take GGUCCCUGUGAACAAGCUGTT against Serpinf1: the z-score is inactive: 1.12.
With GCUUCACGAUUAAAACUAATT against Ltb4r1, the z-score was inactive: 0.
As to GCCUCACAGAUUGAUAAUATT against Akt3, the z-score was inactive: -1.23.
As to GGGAGCAGAUUGAAACAGUTT against Eri2, the z-score is inactive: -0.546.
Consider GUAAGGUAUUCAGUGACCUTT against Olfml2a, for which the z-score is active: -2.23.
Consider GGUCAAAUGGUGAAAAAGUTT against Stxbp5l, for which the z-score was inactive: 0.152.
With GGAUGCUGUUUACCUAUACTT against Slc51a, the z-score is inactive: -1.14.
GGCAGUACCUUACAUUUAATT against Galnt7: the z-score was inactive: 1.61.

These data come from PubChem BioAssay AID1508600 (Functional Genomics Laboratory (NCATS/FGL), 2020).
